According to patent US20200155631A1, “METHOD OF STABILIZING MIND AND BODY WITH DISTILLED EXTRACT OF MOUNTAIN-CULTIVATED PANAX GINSENG” (Jayeonae Co., Ltd., priority 2018, published 2020):

Experiment: Olfactory test (GC-MS olfactory detection port sniffing test, three skilled experimenters)
Details: olfactory test of volatile flavor components

SMILES | flavor character
Cc1nc(C)c(C)nc1C [2,3,5,6 Tetramethyl pyrazine, 2,3,5,6-tetramethylpyrazine] | sweet flavor
C=C[C@]1(C)CC[C@@H](C(=C)C)C[C@H]1C(=C)C [β-Elemene] | herb flavor
CC(C)c1ccc(C=O)cc1 [4-1-Methyl ethyl benzaldehyde] | sweet flavor
